These are literature values, as cited in patent US4752612A, “Method and percutaneously administering physiologically active agents using an alcohol adjuvant and a solvent” (Nitto Electrical Industrial Co., Ltd., priority 1986, dated 1988).

For this data set the following is noted: man, Kaplan et al., J. Pharm. Sci. 1973; cited from earlier work.

Consider `CN1C(=O)CN=C(c2ccccc2)c2cc(Cl)ccc21` [Diazepam, 7-Chloro-1,3-dihydro-1-methyl-5-phenyl-2H-1,4-benzodiazepine-2-one], for which the “blood levels after therapeutic oral doses” value was “approximately 100 ng/ml plasma”.
